Data as given in the supplement of paper PMC10331698.
± gives the standard deviation of the averaged measurements. Small differences around the control level are noise.

Legend:
Assay in all cases: level (log10 ratio to DMSO vehicle control); higher = higher biomarker level / cell amount than vehicle control
Perfluorodecanoic acid = compound: O=C(O)C(F)(F)C(F)(F)C(F)(F)C(F)(F)C(F)(F)C(F)(F)C(F)(F)C(F)(F)C(F)(F)F [Perfluorodecanoic acid]; details: in DMSO
Description: (§1)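 BioMAP Diversity Plus panel of 12 human primary cell co-culture systems (3C, 4H, LPS, SAg, BT, BF4T, BE3C, CASM3C, HDF3CGF, KF3CT, MyoF, Mphg). Compounds were added 1 h before stimulation and left for 24 h (MyoF 48 h; BT 72 h for soluble read-outs or 6 d for IgG). Biomarkers were read by ELISA, cytotoxicity by SRB, PBMC viability and proliferation by Alamar Blue. Each well value was divided by the mean of 8 DMSO control wells on the same plate and log10 transformed; duplicate blinded samples were tested at 4 concentrations.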

[1] = compound: C=CC(=O)OCC(F)(F)C(F)(F)C(F)(F)C(F)(F)C(F)(F)C(F)(F)C(F)(F)C(F)F [1H,1H,9H-Perfluorononyl acrylate]; details: 2200 nM; in DMSO
Description: as §1

[2] = compound: O=C(O)C(F)(F)C(F)(F)C(F)(F)C(F)(F)C(F)(F)C(F)(F)C(F)(F)F [Ammonium perfluorooctanoate]; details: 2200 nM; in DMSO
Description: as §1

[3] = compound: FC(F)(F)C(F)(F)C(F)(F)C(F)(F)C(F)(F)C(F)(F)C(F)(F)C(F)(F)CCS [2-(Perfluorooctyl)ethanthiol]; details: in DMSO
Description: as §1

Perfluorooctanamidine = compound: N=C(N)C(F)(F)C(F)(F)C(F)(F)C(F)(F)C(F)(F)C(F)(F)C(F)(F)F [Perfluorooctanamidine]; details: in DMSO
Description: as §1

[4] = compound: O=C(O)C(F)(F)OC(F)(F)C(F)(F)OC(F)(F)C(F)(F)OC(F)(F)C(F)(F)C(F)(F)C(F)(F)F [Perfluoro-3,6,9-trioxatridecanoic acid]; details: 2200 nM; in DMSO
Description: as §1

[5] = compound: OCC(F)(F)C(F)(F)C(F)(F)C(F)(F)C(F)(F)C(F)(F)C(F)(F)C(F)(F)CO [1H,1H,10H,10H-Perfluorodecane-1,10-diol]; details: 2200 nM; in DMSO
Description: as §1

Perfluorononanoic acid = compound: O=C(O)C(F)(F)C(F)(F)C(F)(F)C(F)(F)C(F)(F)C(F)(F)C(F)(F)C(F)(F)F [Perfluorononanoic acid]; details: 2200 nM; in DMSO
Description: as §1

[6] = compound: O=C(O)CCC(F)(C(F)(F)F)C(F)(F)F [4,4-bis(Trifluoromethyl)-4-fluoropropanoic acid]; details: 2200 nM; in DMSO
Description: as §1

[7] = compound: O=C(CC(=O)C(F)(F)C(F)(F)C(F)(F)F)c1cccs1 [(Perfluorobutyryl)-2-thenoylmethane]; details: 2200 nM; in DMSO
Description: as §1

[8] = compound: OCC(F)(F)OC(F)(F)C(F)(F)OC(F)(F)C(F)(F)OC(F)(F)CO [1H,1H,11H,11H-Perfluorotetraethylene glycol]; details: 2200 nM; in DMSO
Description: as §1

[9] = compound: O=C(O)C(F)(F)OC(F)(F)C(F)(F)OC(F)(F)F [Perfluoro-3,6-dioxaheptanoic acid]; details: 2200 nM; in DMSO
Description: as §1

Perfluorooctanoic acid = compound: O=C(O)C(F)(F)C(F)(F)C(F)(F)C(F)(F)C(F)(F)C(F)(F)C(F)(F)F [Perfluorooctanoic acid]; details: 2200 nM; in DMSO
Description: as §1

[10] = compound: CCOC(=O)CC(=O)C(F)(F)C(F)(F)F [Ethyl pentafluoropropionyl acetate]; details: 2200 nM; in DMSO
Description: as §1

Row | Test System | level (log10) (Perfluorodecanoic acid; 2200 nM) | level (log10) (Perfluorodecanoic acid; 6700 nM) | level (log10) (Perfluorodecanoic acid; 20000 nM) | level (log10) [1] | level (log10) [2] | level (log10) ([3]; 740 nM) | level (log10) ([3]; 2200 nM) | level (log10) (Perfluorooctanamidine; 2200 nM) | level (log10) (Perfluorooctanamidine; 6700 nM) | level (log10) (Perfluorooctanamidine; 20000 nM) | level (log10) (Perfluorooctanamidine; 60000 nM) | level (log10) [4] | level (log10) [5] | level (log10) (Perfluorononanoic acid) | level (log10) [6] | level (log10) [7] | level (log10) [8] | level (log10) [9] | level (log10) (Perfluorooctanoic acid) | level (log10) [10]
1 | 4H:CCL2/MCP-1 | 0 ± 0.011 | -0.014 ± 0.0057 | -0.0255 ± 0.03 | -0.015 ± 0.025 | 0.005 ± 0.0099 | 0.002 ± 0.035 | -0.016 ± 0.0014 | 0.0185 ± 0.0064 | 0.0095 ± 0.011 | -0.0055 ± 0.0064 | 0.061 | 0.007 ± 0.0085 | -0.0055 ± 0.098 | 0.0075 ± 0.061 | 0.0275 ± 0.054 | -0.005 ± 0.011 | 0.0135 ± 0.07 | 0.0125 ± 0.037 | 0.009 ± 0.054 | 0.007 ± 0.035
2 | CASM3C:CD106/VCAM-1 | -0.009 ± 0.0042 | 0.0015 ± 0.0092 | -0.036 ± 0.0085 | -0.0385 ± 0.0078 | -0.019 ± 0.034 | 0.02 ± 0.028 | -0.0075 ± 0.0035 | 0.004 ± 0.052 | -0.0165 ± 0.00071 | -0.0195 ± 0.012 | -0.032 | -0.0065 ± 0.025 | 0.024 ± 0.013 | -0.015 ± 0.0028 | -0.0585 ± 0.067 | 0.001 ± 0.023 | 0.0145 ± 0.0078 | 0.044 ± 0.013 | -0.0085 ± 0.074 | -0.027 ± 0.014
3 | LPS:CD69 | -0.0205 ± 0.033 | -0.03 ± 0.011 | -0.048 ± 0.0099 | -0.0185 ± 0.00071 | -0.0075 ± 0.03 | -0.002 ± 0.03 | -0.022 ± 0.024 | 0.005 ± 0.04 | -0.025 ± 0.045 | -0.0395 ± 0.04 | -0.132 | -0.0125 ± 0.052 | 0.0185 ± 0.021 | 0 ± 0.021 | -0.018 ± 0.05 | -0.0305 ± 0.039 | 0.003 ± 0.038 | -0.0155 ± 0.00071 | 0.0795 ± 0.074 | -0.012 ± 0.031
4 | 3C:Proliferation | 0.0205 ± 0.00071 | 0.0395 ± 0.032 | 0.0005 ± 0.044 | -0.064 ± 0.045 | -0.005 ± 0.078 | -0.026 ± 0.071 | 0 ± 0.064 | -0.0475 ± 0.03 | -0.0395 ± 0.018 | -0.054 ± 0.028 | -0.194 | -0.003 ± 0.069 | -0.0925 ± 0.059 | -0.0035 ± 0.083 | -0.0005 ± 0.032 | -0.0135 ± 0.021 | -0.0725 ± 0.052 | -0.0725 ± 0.035 | 0.094 ± 0.17 | -0.0085 ± 0.073
5 | KF3CT:IL-1alpha | -0.018 ± 0.016 | -0.0535 ± 0.0035 | -0.068 ± 0.0042 | 0.017 ± 0.069 | -0.01 ± 0.0099 | -0.0165 ± 0.05 | -0.012 ± 0.03 | -0.0015 ± 0.0078 | -0.005 ± 0.04 | 0.0115 ± 0.011 | 0.03 | -0.03 ± 0.027 | 0.0225 ± 0.047 | -0.035 ± 0.076 | -0.045 ± 0.0028 | 0.0035 ± 0.028 | 0.0295 ± 0.06 | -0.0345 ± 0.06 | 0.0035 ± 0.0078 | 0.014 ± 0.034
6 | 3C:SRB | 0.012 ± 0.0014 | 0.0095 ± 0.0021 | -0.005 ± 0.0042 | 0.0095 ± 0.00071 | -0.0095 ± 0.0035 | 0 ± 0.017 | 0.0075 ± 0.011 | 0.009 ± 0.0042 | 0.008 ± 0.016 | 0.0195 ± 0.019 | -0.054 | -0.016 ± 0.0085 | 0.0055 ± 0.023 | 0.016 ± 0.0028 | -0.0075 ± 0.0064 | -0.0025 ± 0.005 | 0.0165 ± 0.0035 | -0.0065 ± 0.016 | -0.025 ± 0.0028 | 0.012 ± 0.017
7 | KF3CT:CCL2/MCP-1 | -0.02 ± 0.038 | -0.127 ± 0.023 | -0.321 ± 0.032 | 0.055 ± 0.023 | -0.002 ± 0.011 | 0.003 ± 0.011 | -0.026 ± 0.011 | -0.013 ± 0.021 | -0.0075 ± 0.0064 | 0.029 ± 0.0099 | 0.092 | -0.037 ± 0.02 | 0.025 ± 0.069 | -0.086 ± 0.058 | 0.012 ± 0.021 | 0.0275 ± 0.043 | 0.0135 ± 0.094 | -0.045 ± 0.0099 | 0.0175 ± 0.04 | -0.0095 ± 0.076
8 | HDF3CGF:Collagen III | 0.102 ± 0.016 | -0.08 ± 0.058 | -0.0755 ± 0.021 | -0.0585 ± 0.066 | 0.0485 ± 0.042 | -0.0015 ± 0.021 | -0.0195 ± 0.04 | -0.008 | -0.047 ± 0.018 | -0.196 ± 0.045 | -0.172 | 0.009 ± 0.058 | -0.032 ± 0.0042 | -0.0695 ± 0.04 | -0.019 ± 0.081 | 0.0305 ± 0.053 | -0.0295 ± 0.11 | -0.0135 ± 0.036 | 0.0185 ± 0.033 | -0.036 ± 0.078
9 | HDF3CGF:CXCL9/MIG | -0.023 ± 0.042 | -0.069 ± 0.048 | -0.27 ± 0.061 | 0.003 ± 0.017 | -0.0165 ± 0.033 | -0.0055 ± 0.0078 | -0.0165 ± 0.0078 | 0.0195 ± 0.005 | 0.0055 ± 0.023 | -0.003 ± 0.018 | 0.018 | -0.0005 ± 0.011 | 0.011 ± 0.011 | 0.0015 ± 0.0064 | -0.0185 ± 0.05 | -0.011 ± 0.0085 | -0.0255 ± 0.019 | 0.0035 ± 0.00071 | -0.006 ± 0.013 | -0.014 ± 0.061
10 | MyoF:SRB | 0.0185 ± 0.0092 | -0.033 ± 0.0014 | -0.08 ± 0.0099 | 0.002 ± 0.011 | 0.0045 ± 0.00071 | 0.0015 ± 0.0064 | -0.01 ± 0.014 | 0.0075 ± 0.022 | 0.007 ± 0.0028 | -0.003 ± 0.0042 | 0.013 | 0.018 ± 0.02 | -0.012 ± 0.0057 | 0.0095 ± 0.013 | -0.003 ± 0.0028 | 0.0105 ± 0.015 | 0 ± 0.0057 | 0.0035 ± 0.015 | 0.008 ± 0.017 | 0.002 ± 0.0042
11 | BT:sIL-6 | -0.0305 ± 0.057 | -0.029 ± 0.071 | 0.077 ± 0.058 | -0.031 ± 0.017 | -0.024 ± 0.1 | 0.009 ± 0.017 | -0.0255 ± 0.046 | 0.075 ± 0.054 | 0.0205 ± 0.025 | -0.0285 ± 0.016 | -0.097 | -0.0315 ± 0.029 | 0.012 ± 0.016 | -0.0265 ± 0.0021 | 0.0325 ± 0.00071 | 0.0055 ± 0.0092 | -0.0665 ± 0.013 | 0.014 ± 0.014 | 0.0775 ± 0.021 | -0.039 ± 0.059
12 | MyoF:MMP-1 | -0.0105 ± 0.019 | -0.0005 ± 0.023 | -0.048 ± 0.0057 | 0.005 ± 0.041 | -0.0025 ± 0.039 | -0.0415 ± 0.067 | -0.047 ± 0.031 | 0.0065 ± 0.073 | -0.025 ± 0.024 | -0.01 | 0.062 | 0.032 ± 0.047 | 0.0155 ± 0.11 | -0.0565 ± 0.025 | 0.0075 ± 0.029 | 0.0415 ± 0.053 | 0.0135 ± 0.074 | -0.0225 ± 0.047 | 0.0215 ± 0.069 | 0.0065 ± 0.087

Quoted at random: 2 entries already listed, in no set order.
Row | Test System | level (log10) (Perfluorodecanoic acid; 2200 nM) | level (log10) (Perfluorodecanoic acid; 6700 nM) | level (log10) (Perfluorodecanoic acid; 20000 nM) | level (log10) [1] | level (log10) [2] | level (log10) ([3]; 740 nM) | level (log10) ([3]; 2200 nM) | level (log10) (Perfluorooctanamidine; 2200 nM) | level (log10) (Perfluorooctanamidine; 6700 nM) | level (log10) (Perfluorooctanamidine; 20000 nM) | level (log10) (Perfluorooctanamidine; 60000 nM) | level (log10) [4] | level (log10) [5] | level (log10) (Perfluorononanoic acid) | level (log10) [6] | level (log10) [7] | level (log10) [8] | level (log10) [9] | level (log10) (Perfluorooctanoic acid) | level (log10) [10]
9 | HDF3CGF:CXCL9/MIG | -0.023 ± 0.042 | -0.069 ± 0.048 | -0.27 ± 0.061 | 0.003 ± 0.017 | -0.0165 ± 0.033 | -0.0055 ± 0.0078 | -0.0165 ± 0.0078 | 0.0195 ± 0.005 | 0.0055 ± 0.023 | -0.003 ± 0.018 | 0.018 | -0.0005 ± 0.011 | 0.011 ± 0.011 | 0.0015 ± 0.0064 | -0.0185 ± 0.05 | -0.011 ± 0.0085 | -0.0255 ± 0.019 | 0.0035 ± 0.00071 | -0.006 ± 0.013 | -0.014 ± 0.061
7 | KF3CT:CCL2/MCP-1 | -0.02 ± 0.038 | -0.127 ± 0.023 | -0.321 ± 0.032 | 0.055 ± 0.023 | -0.002 ± 0.011 | 0.003 ± 0.011 | -0.026 ± 0.011 | -0.013 ± 0.021 | -0.0075 ± 0.0064 | 0.029 ± 0.0099 | 0.092 | -0.037 ± 0.02 | 0.025 ± 0.069 | -0.086 ± 0.058 | 0.012 ± 0.021 | 0.0275 ± 0.043 | 0.0135 ± 0.094 | -0.045 ± 0.0099 | 0.0175 ± 0.04 | -0.0095 ± 0.076
